Measurements as given in paper PMC8955975, “Pyrazolo[4,3-c]pyridine Sulfonamides as Carbonic Anhydrase Inhibitors: Synthesis, Biological and In Silico Studies” (Pharmaceuticals, 2022).

Protein sequences, listed by entry. Tags and fused reporters are not part of them. Lines headed by an entry give the natural chain unless they say otherwise; changes in a name come on top.
UniProt P61517: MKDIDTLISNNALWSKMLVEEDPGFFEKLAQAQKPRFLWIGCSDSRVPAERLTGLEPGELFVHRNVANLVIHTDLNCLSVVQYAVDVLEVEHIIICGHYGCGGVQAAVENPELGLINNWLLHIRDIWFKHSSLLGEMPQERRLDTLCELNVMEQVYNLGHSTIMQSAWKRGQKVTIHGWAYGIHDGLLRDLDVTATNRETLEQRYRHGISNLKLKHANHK
UniProt P0A9W9: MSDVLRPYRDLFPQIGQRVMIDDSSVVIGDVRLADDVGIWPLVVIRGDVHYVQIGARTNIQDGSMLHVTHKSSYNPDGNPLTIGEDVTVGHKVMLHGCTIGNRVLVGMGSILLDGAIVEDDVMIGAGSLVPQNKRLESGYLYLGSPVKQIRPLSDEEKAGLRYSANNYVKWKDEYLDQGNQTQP

Assays:
[1] = biological target: β-CA from E. coli (Escherichia coli, UniProt P61517); assay: stopped-flow CO2 hydrase assay, E. coli β-CA; type: biochemical; conditions: mean from 3 different assays
Experimental: An Applied PhotoPhysics stopped-flow instrument was used for assaying the CA-catalyzed CO2 hydration activity. […] The CO2 concentrations ranged from 1.7 to 17 mM for the determination of the kinetic parameters and inhibition constants. […] However, the background activity from the uncatalyzed reaction was always subtracted when IC50 values were obtained by using the data analysis software for the stopped-flow instrument. Enzyme concentrations ranged between 5 and 10 nM. For each inhibitor, at least six traces of the initial 5–10% of the reaction were used for determining the initial velocity. The uncatalyzed rates were determined in the same manner and subtracted from the total observed rates. Stock solutions of the inhibitor (0.1 mM) were prepared in distilled–deionized water, and dilutions up to 0.01 nM were carried out thereafter with the assay buffer. Inhibitor and enzyme solutions were preincubated together for 15 min at room temperature prior to the assay to allow for the formation of the E–I complex. The inhibition constants were obtained by nonlinear least-squares methods using PRISM 3 and the Cheng–Prusoff equation, as reported earlier, and represent the mean from at least three different determinations. All CA isoforms were recombinant proteins obtained in house, as reported earlier.

[2] = biological target: γ-CA from E. coli (Escherichia coli, UniProt P0A9W9); type: biochemical; conditions: stopped-flow CO2 hydrase assay; mean from 3 different assays

`CC(=O)Nc1nnc(S(N)(=O)=O)s1` [AAZ, acetazolamide, reference compound] gave a Ki [1] of 227 nM and a Ki [2] of 248 nM.
